Measurements taken from patent publication US12419871B2, “Biomolecules involved in Alzheimer's disease” (ELECTROPHORETICS LIMITED, priority 2015, dated 2025).

B1: Q13045 (protein, UniProt Q13045 1-1269, looked up)
chain: MEATGVLPFVRGVDLSGNDFKGGYFPENVKAMTSLRWLKLNRTGLCYLPEELAALQKLEHLSVSHNNLTTLHGELSSLPSLRAIVARANSLKNSGVPDDIFKLDDLSVLDLSHNQLTECPRELENAKNMLVLNLSHNSIDTIPNQLFINLTDLLYLDLSENRLESLPPQMRRLVHLQTLVLNGNPLLHAQLRQLPAMTALQTLHLRSTQRTQSNLPTSLEGLSNLADVDLSCNDLTRVPECLYTLPSLRRLNLSSNQITELSLCIDQWVHVETLNLSRNQLTSLPSAICKLSKLKKLYLNSNKLDFDGLPSGIGKLTNLEEFMAANNNLELVPESLCRCPKLRKLVLNKNHLVTLPEAIHFLTEIEVLDVRENPNLVMPPKPADRAAEWYNIDFSLQNQLRLAGASPATVAAAAAAGSGPKDPMARKMRLRRRKDSAQDDQAKQVLKGMSDVAQEKNKKQEESADARAPSGKVRRWDQGLEKPRLDYSEFFTEDVGQLPGLTIWQIENFVPVLVEEAFHGKFYEADCYIVLKTFLDDSGSLNWEIYYWIGGEATLDKKACSAIHAVNLRNYLGAECRTVREEMGDESEEFLQVFDNDISYIEGGTASGFYTVEDTHYVTRMYRVYGKKNIKLEPVPLKGTSLDPRFVFLLDRGLDIYVWRGAQATLSSTTKARLFAEKINKNERKGKAEITLLVQGQELPEFWEALGGEPSEIKKHVPEDFWPPQPKLYKVGLGLGYLELPQINYKLSVEHKQRPKVELMPRMRLLQSLLDTRCVYILDCWSDVFIWLGRKSPRLVRAAALKLGQELCGMLHRPRHATVSRSLEGTEAQVFKAKFKNWDDVLTVDYTRNAEAVLQSPGLSGKVKRDAEKKDQMKADLTALFLPRQPPMSLAEAEQLMEEWNEDLDGMEGFVLEGKKFARLPEEEFGHFYTQDCYVFLCRYWVPVEYEEEEKKEDKEEKAEGKEGEEATAEAEEKQPEEDFQCIVYFWQGREASNMGWLTFTFSLQKKFESLFPGKLEVVRMTQQQENPKFLSHFKRKFIIHRGKRKAVQGAQQPSLYQIRTNGSALCTRCIQINTDSSLLNSEFCFILKVPFESEDNQGIVYAWVGRASDPDEAKLAEDILNTMFDTSYSKQVINEGEEPENFFWVGIGAQKPYDDDAEYMKHTRLFRCSNEKGYFAVTEKCSDFCQDDLADDDIMLLDNGQEVYMWVGTQTSQVEIKLSLKACQVYIQHMRSKEHERPRRLRLVRKGNEQHAFTRCFHAWSAFCKALA
modifications: full-length
B2: Q02156 (protein, UniProt Q02156 1-737, looked up)
chain: MVVFNGLLKIKICEAVSLKPTAWSLRHAVGPRPQTFLLDPYIALNVDDSRIGQTATKQKTNSPAWHDEFVTDVCNGRKIELAVFHDAPIGYDDFVANCTIQFEELLQNGSRHFEDWIDLEPEGRVYVIIDLSGSSGEAPKDNEERVFRERMRPRKRQGAVRRRVHQVNGHKFMATYLRQPTYCSHCRDFIWGVIGKQGYQCQVCTCVVHKRCHELIITKCAGLKKQETPDQVGSQRFSVNMPHKFGIHNYKVPTFCDHCGSLLWGLLRQGLQCKVCKMNVHRRCETNVAPNCGVDARGIAKVLADLGVTPDKITNSGQRRKKLIAGAESPQPASGSSPSEEDRSKSAPTSPCDQEIKELENNIRKALSFDNRGEEHRAASSPDGQLMSPGENGEVRQGQAKRLGLDEFNFIKVLGKGSFGKVMLAELKGKDEVYAVKVLKKDVILQDDDVDCTMTEKRILALARKHPYLTQLYCCFQTKDRLFFVMEYVNGGDLMFQIQRSRKFDEPRSRFYAAEVTSALMFLHQHGVIYRDLKLDNILLDAEGHCKLADFGMCKEGILNGVTTTTFCGTPDYIAPEILQELEYGPSVDWWALGVLMYEMMAGQPPFEADNEDDLFESILHDDVLYPVWLSKEAVSILKAFMTKNPHKRLGCVASQNGEDAIKQHPFFKEIDWVLLEQKKIKPPFKPRIKTKRDVNNFDQDFTREEPVLTLVDEAIVKQINQEEFKGFSYFGEDLMP
modifications: full-length
B3: Q99435 (protein, UniProt Q99435 1-816, looked up)
chain: MESRVLLRTFCLIFGLGAVWGLGVDPSLQIDVLTELELGESTTGVRQVPGLHNGTKAFLFQDTPRSIKASTATAEQFFQKLRNKHEFTILVTLKQTHLNSGVILSIHHLDHRYLELESSGHRNEVRLHYRSGSHRPHTEVFPYILADDKWHKLSLAISASHLILHIDCNKIYERVVEKPSTDLPLGTTFWLGQRNNAHGYFKGIMQDVQLLVMPQGFIAQCPDLNRTCPTCNDFHGLVQKIMELQDILAKTSAKLSRAEQRMNRLDQCYCERTCTMKGTTYREFESWIDGCKNCTCLNGTIQCETLICPNPDCPLKSALAYVDGKCCKECKSICQFQGRTYFEGERNTVYSSSGVCVLYECKDQTMKLVESSGCPALDCPESHQITLSHSCCKVCKGYDFCSERHNCMENSICRNLNDRAVCSCRDGFRALREDNAYCEDIDECAEGRHYCRENTMCVNTPGSFMCICKTGYIRIDDYSCTEHDECITNQHNCDENALCFNTVGGHNCVCKPGYTGNGTTCKAFCKDGCRNGGACIAANVCACPQGFTGPSCETDIDECSDGFVQCDSRANCINLPGWYHCECRDGYHDNGMFSPSGESCEDIDECGTGRHSCANDTICFNLDGGYDCRCPHGKNCTGDCIHDGKVKHNGQIWVLENDRCSVCSCQNGFVMCRRMVCDCENPTVDLFCCPECDPRLSSQCLHQNGETLYNSGDTWVQNCQQCRCLQGEVDCWPLPCPDVECEFSILPENECCPRCVTDPCQADTIRNDITKTCLDEMNVVRFTGSSWIKHGTECTLCQCKNGHICCSVDPQCLQEL
modifications: full-length
B4: Q9BPW8 (protein, UniProt Q9BPW8 1-284, looked up)
chain: MAPRLCSISVTARRLLGGPGPRAGDVASAAAARFYSKDNEGSWFRSLFVHKVDPRKDAHSTLLSKKETSNLYKIQFHNVKPEYLDAYNSLTEAVLPKLHLDEDYPCSLVGNWNTWYGEQDQAVHLWRFSGGYPALMDCMNKLKNNKEYLEFRRERSQMLLSRRNQLLLEFSFWNEPQPRMGPNIYELRTYKLKPGTMIEWGNNWARAIKYRQENQEAVGGFFSQIGELYVVHHLWAYKDLQSREETRNAAWRKRGWDENVYYTVPLVRHMESRIMIPLKISPLQ
modifications: full-length
B5: O75323 (protein, UniProt O75323 1-286, looked up)
chain: MAARVLRARGAAWAGGLLQRAAPCSLLPRLRTWTSSSNRSREDSWLKSLFVRKVDPRKDAHSNLLAKKETSNLYKLQFHNVKPECLEAYNKICQEVLPKIHEDKHYPCTLVGTWNTWYGEQDQAVHLWRYEGGYPALTEVMNKLRENKEFLEFRKARSDMLLSRKNQLLLEFSFWNEPVPRSGPNIYELRSYQLRPGTMIEWGNYWARAIRFRQDGNEAVGGFFSQIGQLYMVHHLWAYRDLQTREDIRNAAWHKHGWEELVYYTVPLIQEMESRIMIPLKTSPLQ
modifications: full-length
B6: Q9UFN0 (protein, UniProt Q9UFN0 1-247, looked up)
chain: MLVLRSALTRALASRTLAPQMCSSFATGPRQYDGIFYEFRSYYLKPSKMNEFLENFEKNAHLRTAHSELVGYWSVEFGGRMNTVFHIWKYDNFAHRTEVRKALAKDKEWQEQFLIPNLALIDKQESEITYLVPWCKLEKPPKEGVYELATFQMKPGGPALWGDAFKRAVHAHVNLGYTKLVGVFHTEYGALNRVHVLWWNESADSRAAGRHKSHEDPRVVAAVRESVNYLVSQQNMLLIPTSFSPLK
modifications: full-length
B7: Q96A00 (protein, listed as Homo sapiens)
chain: MAAQRLGKRVLSKLQSPSRARGPGGSPGGLQKRHARVTVKYDRRELQRRLDVEKWIDGRLEELYRGMEADMPDEINIDELLELESEEERSRKIQGLLKSCGKPVEDFIQELLAKLQGLHRQPGLRQPSPSHDGSLSPLQDRARTAHP

Assay: TMTcalibrator quantification of regulated proteins in AD CSF versus control
Parameters: species or system human
Settings: CSF of AD patient versus control; non-modified peptides of each protein summed for three control and three AD cases

Molecule	Log2 AD/Control
B1	0.65
B2	0.99
B3	0.68
B4	0.80
B5	1.61
B6	0.73
B7	0.70
